Experiment [1] addresses SMC2, endogenous (human (endogenous in HeLa)) (UniProt O95347). Kind of experiment: co-IP; immunoprecipitation in mitotic cells, with or without pre-rRNAs (Fig. S8A).
The target in experiment [2] is T1, Aurora Kinase A (AURKA), endogenous (human (endogenous in HeLa)) (UniProt O14965).
T1 sequence: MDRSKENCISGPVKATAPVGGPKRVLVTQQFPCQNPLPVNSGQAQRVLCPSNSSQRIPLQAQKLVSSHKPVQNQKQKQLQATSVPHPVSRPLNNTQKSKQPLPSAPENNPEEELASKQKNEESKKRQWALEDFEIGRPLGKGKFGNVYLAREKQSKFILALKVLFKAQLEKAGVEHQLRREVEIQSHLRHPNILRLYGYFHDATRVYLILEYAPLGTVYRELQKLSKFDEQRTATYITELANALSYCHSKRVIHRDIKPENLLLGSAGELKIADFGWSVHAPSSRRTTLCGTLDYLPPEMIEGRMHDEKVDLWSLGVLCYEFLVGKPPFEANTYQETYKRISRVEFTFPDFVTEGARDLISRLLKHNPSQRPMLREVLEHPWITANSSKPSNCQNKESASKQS
Kind of experiment: co-IP; endogenous proteins; chromosome-binding proteins of HeLa cells synchronized at M phase by thymidine double blocking and shake-off, treated with Pol I inhibitors or DMSO (Fig. 3C, Fig. 6B).

By UniProt entry, the sequences of proteins in these tests, tags left out.
UniProt O95347: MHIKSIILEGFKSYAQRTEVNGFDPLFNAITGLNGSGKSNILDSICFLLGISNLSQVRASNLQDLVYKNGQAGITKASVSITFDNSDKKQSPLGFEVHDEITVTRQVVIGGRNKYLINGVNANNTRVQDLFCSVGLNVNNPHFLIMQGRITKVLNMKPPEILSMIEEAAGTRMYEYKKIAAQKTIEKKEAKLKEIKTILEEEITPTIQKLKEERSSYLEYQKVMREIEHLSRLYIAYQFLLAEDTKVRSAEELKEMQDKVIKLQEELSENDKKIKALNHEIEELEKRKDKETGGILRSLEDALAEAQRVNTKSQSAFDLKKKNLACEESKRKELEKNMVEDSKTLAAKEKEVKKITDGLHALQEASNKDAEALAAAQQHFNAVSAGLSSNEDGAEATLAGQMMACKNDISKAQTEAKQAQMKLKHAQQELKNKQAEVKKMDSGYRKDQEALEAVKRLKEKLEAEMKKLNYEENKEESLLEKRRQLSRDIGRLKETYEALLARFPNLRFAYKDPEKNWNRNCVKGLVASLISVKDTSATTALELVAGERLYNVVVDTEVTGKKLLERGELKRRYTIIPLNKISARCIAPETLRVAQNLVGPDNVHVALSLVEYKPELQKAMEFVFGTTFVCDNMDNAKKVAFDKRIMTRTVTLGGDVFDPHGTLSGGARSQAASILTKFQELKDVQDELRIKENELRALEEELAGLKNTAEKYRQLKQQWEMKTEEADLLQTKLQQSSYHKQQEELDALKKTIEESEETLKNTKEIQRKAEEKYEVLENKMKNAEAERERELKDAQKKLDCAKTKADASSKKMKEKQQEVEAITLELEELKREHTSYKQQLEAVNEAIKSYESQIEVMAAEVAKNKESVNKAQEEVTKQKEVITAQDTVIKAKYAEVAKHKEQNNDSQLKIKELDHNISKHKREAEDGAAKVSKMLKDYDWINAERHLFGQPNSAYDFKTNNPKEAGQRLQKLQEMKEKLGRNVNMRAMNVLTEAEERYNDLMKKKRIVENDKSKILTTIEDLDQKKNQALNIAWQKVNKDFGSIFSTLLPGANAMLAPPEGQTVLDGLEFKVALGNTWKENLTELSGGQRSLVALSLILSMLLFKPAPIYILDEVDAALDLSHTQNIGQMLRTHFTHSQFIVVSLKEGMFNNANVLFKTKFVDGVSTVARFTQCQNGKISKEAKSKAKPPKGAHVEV
UniProt Q96GD4: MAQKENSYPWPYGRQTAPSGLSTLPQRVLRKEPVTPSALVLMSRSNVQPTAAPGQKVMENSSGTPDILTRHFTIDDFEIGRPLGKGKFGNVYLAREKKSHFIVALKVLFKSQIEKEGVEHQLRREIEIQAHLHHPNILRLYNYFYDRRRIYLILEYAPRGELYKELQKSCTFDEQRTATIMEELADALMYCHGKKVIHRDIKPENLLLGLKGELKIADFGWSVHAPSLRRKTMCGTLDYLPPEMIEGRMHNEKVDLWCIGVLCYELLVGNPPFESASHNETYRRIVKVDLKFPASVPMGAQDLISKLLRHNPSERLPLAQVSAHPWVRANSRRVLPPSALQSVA

The next experiment addresses GST-SMC2 (UniProt O95347). As to the kind of experiment: pull-down; GST fusion proteins bound to Glutathione Sepharose 4B incubated with purified His-tagged protein; 100 mM NaCl, 2 mM EDTA, 20 mM Tris-HCl pH 7.5, 2 mM DTT, 5% glycerol, 1% NP-40; immunoblot; both purified. (In general: A western blot detects proteins with antibodies after separation by electrophoresis.)

No constants are given. Whether binding was seen depends on the method and setting. For part of these data: In cells and extracts the contact can be indirect. Some entries that bind do so weakly or less than the wild type. For part of these data: Where a sequence is shown, tags or fusion partners need not be part of it.

Take “AURKB, endogenous (from UniProt Q96GD4 1-344) (enzyme)”: the binding result in experiment [1] is listed as “no binding”.

For the molecule “SMC2, endogenous (from UniProt O95347 1-1197)”, the binding result in experiment [2] is listed as “binds”.

B1: His-AURKA (enzyme, UniProt O14965 1-403)
chain: MDRSKENCISGPVKATAPVGGPKRVLVTQQFPCQNPLPVNSGQAQRVLCPSNSSQRIPLQAQKLVSSHKPVQNQKQKQLQATSVPHPVSRPLNNTQKSKQPLPSAPENNPEEELASKQKNEESKKRQWALEDFEIGRPLGKGKFGNVYLAREKQSKFILALKVLFKAQLEKAGVEHQLRREVEIQSHLRHPNILRLYGYFHDATRVYLILEYAPLGTVYRELQKLSKFDEQRTATYITELANALSYCHSKRVIHRDIKPENLLLGSAGELKIADFGWSVHAPSSRRTTLCGTLDYLPPEMIEGRMHDEKVDLWSLGVLCYEFLVGKPPFEANTYQETYKRISRVEFTFPDFVTEGARDLISRLLKHNPSQRPMLREVLEHPWITANSSKPSNCQNKESASKQS
On to B1, for which, in the experiment with GST-SMC2, the binding entry was “binds”.

Source of the values: paper PMC12594857.
